Patent US20230313299A1, “METHOD FOR DIAGNOSIS AND/OR PROGNOSIS OF LIVER DISEASE PROGRESSION AND RISK OF HEPATOCELLULAR CARCINOMA AND DISCOVERY OF THERAPEUTIC COMPOUNDS AND TARGETS TO TREAT LIVER DISEASE AND CANCER” (UNIVERSITÉ DE STRASBOURG, priority 2020, published 2023)

Tested on: H3K27ac
Test: H3K27ac ChIPmentation-based ChIP-Seq with RNA-Seq of NASH and CHC patient liver tissue (Table S3)
Parameters: species or system human
Details: NASH patients liver tissue; negative changes indicate good prognosis genes, positive changes poor prognosis genes

For DAB1, which “Epigenetic (H3K27ac) log2FC, NASH” value is on record?
Its value is −0.3238.
